The values below come from paper PMC3842171 (Bioorganic & medicinal chemistry letters, 2011).

The test system of this assay is HDAC activity (HeLa cell lysates). Kind of assay: Fluor de Lys in vitro fluorescence HDAC activity assay using HeLa cell lysates. The assay is classed as biochemical. Conditions: HeLa cell lysates as source of HDAC activity; mean of three experiments with standard error.

In turn, `O=C(CCCCCCC(=O)Nc1ccccc1)NO` [SAHA, suberoylanilide hydroxamic acid, reference compound] registered an IC50 of 90 ± 4 nM.
